Record: PubChem BioAssay AID1259254 (NCATS, 2017)
Shown is one part, drawn at random, of about 59,000 reagents tested. About 1,550 of all reagents (2.6%) were called active. 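G2 share is only a proxy for re-replication; each gene was hit by three separate siRNAs, and active genes were retested.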 The numbers tell different reagents against one gene apart. Further read-outs or replicates are left out here. Not stated in the record: the amount of reagent.

Screen: 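Gene knock-downs that lead to re-replication, shown by excess G2 DNA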 (primary screen)
Cell system: human HCT116 colorectal cancer cells
Reagent: single siRNA against human genes
Time to read-out: 3 days
Detection: 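Nuclei stained with Hoechst and imaged; cell-cycle phase assigned by DNA content; G2 share scaled per plate, non-targeting siRNA 0%, GMNN siRNA 100%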
Direction: G2 robust z-score and G2 cells, % of GMNN control: higher = more G2 cells, more excess DNA replication
Active means: 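An siRNA counts as active if its G2 robust z-score lies at least 5 MADs above the screen median; here such calls match roughly 38% of GMNN control or more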

| gene | siRNA no. | G2 robust z-score | G2 cells, % of GMNN control | activity call |
| --- | --- | --- | --- | --- |
| CSDE1 (GeneID 7812) | 1 | -0.0858 | 2.36 | inactive |
| CSDE1 (GeneID 7812) | 2 | -0.546 | -0.877 | inactive |
| CSDE1 (GeneID 7812) | 3 | 0.763 | 8.34 | inactive |
| ADAMDEC1 (GeneID 27299) | 1 | -0.826 | -2.84 | inactive |
| ADAMDEC1 (GeneID 27299) | 2 | 3 | 24.1 | inactive |
| ADAMDEC1 (GeneID 27299) | 3 | 0.153 | 4.05 | inactive |
| CTAGE15 (GeneID 441294) | 1 | -0.561 | -0.98 | inactive |
| CTAGE15 (GeneID 441294) | 2 | -0.407 | 0.107 | inactive |
| CTAGE15 (GeneID 441294) | 3 | -0.627 | -1.45 | inactive |
| RANBP2 (GeneID 5903) | 1 | 7.39 | 55 | active |
| RANBP2 (GeneID 5903) | 2 | 3.36 | 26.6 | inactive |
| RANBP2 (GeneID 5903) | 3 | 0.479 | 6.34 | inactive |
| IRS4 (GeneID 8471) | 1 | 4.87 | 37.2 | inactive |
| IRS4 (GeneID 8471) | 2 | -0.0636 | 2.52 | inactive |
| IRS4 (GeneID 8471) | 3 | 0.511 | 6.56 | inactive |
| CYP24A1 (GeneID 1591) | 1 | 0.291 | 5.01 | inactive |
| CYP24A1 (GeneID 1591) | 2 | 2.86 | 23.1 | inactive |
| CYP24A1 (GeneID 1591) | 3 | -0.25 | 1.21 | inactive |
| TUB (GeneID 7275) | 1 | -0.674 | -1.78 | inactive |
| TUB (GeneID 7275) | 2 | 1.05 | 10.4 | inactive |
| TUB (GeneID 7275) | 3 | 2.79 | 22.6 | inactive |
| ALKBH6 (GeneID 84964) | 1 | -0.312 | 0.774 | inactive |
| ALKBH6 (GeneID 84964) | 2 | 1.57 | 14 | inactive |
| ALKBH6 (GeneID 84964) | 3 | 0.0763 | 3.5 | inactive |
| IFNA7 (GeneID 3444) | 1 | -0.202 | 1.55 | inactive |
| IFNA7 (GeneID 3444) | 2 | -1 | -4.07 | inactive |
| IFNA7 (GeneID 3444) | 3 | -0.713 | -2.05 | inactive |
| TCP11L2 (GeneID 255394) | 1 | 1.08 | 10.5 | inactive |
| TCP11L2 (GeneID 255394) | 2 | -0.437 | -0.108 | inactive |
| TCP11L2 (GeneID 255394) | 3 | -0.569 | -1.03 | inactive |
| HEMGN (GeneID 55363) | 1 | 0.352 | 5.45 | inactive |
| HEMGN (GeneID 55363) | 2 | 0.00928 | 3.03 | inactive |
| HEMGN (GeneID 55363) | 3 | -1.15 | -5.13 | inactive |

11 neighbouring entries from above, quoted:
| gene | siRNA no. | G2 robust z-score | G2 cells, % of GMNN control | activity call |
| --- | --- | --- | --- | --- |
| TUB (GeneID 7275) | 1 | -0.674 | -1.78 | inactive |
| TUB (GeneID 7275) | 2 | 1.05 | 10.4 | inactive |
| TUB (GeneID 7275) | 3 | 2.79 | 22.6 | inactive |
| ALKBH6 (GeneID 84964) | 1 | -0.312 | 0.774 | inactive |
| ALKBH6 (GeneID 84964) | 2 | 1.57 | 14 | inactive |
| ALKBH6 (GeneID 84964) | 3 | 0.0763 | 3.5 | inactive |
| IFNA7 (GeneID 3444) | 1 | -0.202 | 1.55 | inactive |
| IFNA7 (GeneID 3444) | 2 | -1 | -4.07 | inactive |
| IFNA7 (GeneID 3444) | 3 | -0.713 | -2.05 | inactive |
| TCP11L2 (GeneID 255394) | 1 | 1.08 | 10.5 | inactive |
| TCP11L2 (GeneID 255394) | 2 | -0.437 | -0.108 | inactive |

The results go on:
| gene | siRNA no. | G2 robust z-score | G2 cells, % of GMNN control | activity call |
| --- | --- | --- | --- | --- |
| ZBTB9 (GeneID 221504) | 1 | 1.03 | 10.2 | inactive |
| ZBTB9 (GeneID 221504) | 2 | -0.156 | 1.87 | inactive |
| ZBTB9 (GeneID 221504) | 3 | -0.26 | 1.14 | inactive |
| GDF6 (GeneID 392255) | 1 | -0.119 | 2.13 | inactive |
| GDF6 (GeneID 392255) | 2 | 0.581 | 7.06 | inactive |
| GDF6 (GeneID 392255) | 3 | -0.976 | -3.9 | inactive |
| MGAT5B (GeneID 146664) | 1 | -0.874 | -3.18 | inactive |
| MGAT5B (GeneID 146664) | 2 | -0.195 | 1.6 | inactive |
| MGAT5B (GeneID 146664) | 3 | -0.94 | -3.65 | inactive |
| RPUSD2 (GeneID 27079) | 1 | -0.506 | -0.59 | inactive |
| RPUSD2 (GeneID 27079) | 2 | 1.47 | 13.3 | inactive |
| RPUSD2 (GeneID 27079) | 3 | -0.5 | -0.55 | inactive |
| SLC22A8 (GeneID 9376) | 1 | -0.433 | -0.0802 | inactive |
| SLC22A8 (GeneID 9376) | 2 | -0.322 | 0.702 | inactive |
| SLC22A8 (GeneID 9376) | 3 | 0.427 | 5.97 | inactive |
| GOLGA2P10 (GeneID 80154) | 1 | -0.33 | 0.647 | inactive |
| GOLGA2P10 (GeneID 80154) | 2 | -1.09 | -4.68 | inactive |
| GOLGA2P10 (GeneID 80154) | 3 | -0.375 | 0.33 | inactive |
| NTAQ1 (GeneID 55093) | 1 | -0.412 | 0.0693 | inactive |
| NTAQ1 (GeneID 55093) | 2 | -0.445 | -0.161 | inactive |
| NTAQ1 (GeneID 55093) | 3 | -0.0241 | 2.8 | inactive |
| KCNQ1 (GeneID 3784) | 1 | 0.821 | 8.75 | inactive |
| KCNQ1 (GeneID 3784) | 2 | -0.621 | -1.4 | inactive |
| KCNQ1 (GeneID 3784) | 3 | -0.237 | 1.3 | inactive |
| CELA1 (GeneID 1990) | 1 | 8.26 | 61.1 | active |
| CELA1 (GeneID 1990) | 2 | 0.439 | 6.05 | inactive |
| CELA1 (GeneID 1990) | 3 | -0.457 | -0.251 | inactive |
| PLA2G3 (GeneID 50487) | 1 | -0.216 | 1.45 | inactive |
| PLA2G3 (GeneID 50487) | 2 | 0.764 | 8.34 | inactive |
| PLA2G3 (GeneID 50487) | 3 | 2.51 | 20.7 | inactive |
| SGO2 (GeneID 151246) | 1 | -0.328 | 0.661 | inactive |
| SGO2 (GeneID 151246) | 2 | 0.253 | 4.75 | inactive |
| SGO2 (GeneID 151246) | 3 | -0.485 | -0.447 | inactive |
| LRRC8E (GeneID 80131) | 1 | 4.99 | 38 | inactive |
| LRRC8E (GeneID 80131) | 2 | 0.423 | 5.95 | inactive |
| LRRC8E (GeneID 80131) | 3 | 0.858 | 9 | inactive |
